# Measured values taken from publication PMC7157520.
# Protein sequences, listed by entry. Tags and fused reporters are not part of them. Lines headed by an entry give the natural chain unless they say otherwise; changes in a name come on top.
# UniProt Q5ZTD8: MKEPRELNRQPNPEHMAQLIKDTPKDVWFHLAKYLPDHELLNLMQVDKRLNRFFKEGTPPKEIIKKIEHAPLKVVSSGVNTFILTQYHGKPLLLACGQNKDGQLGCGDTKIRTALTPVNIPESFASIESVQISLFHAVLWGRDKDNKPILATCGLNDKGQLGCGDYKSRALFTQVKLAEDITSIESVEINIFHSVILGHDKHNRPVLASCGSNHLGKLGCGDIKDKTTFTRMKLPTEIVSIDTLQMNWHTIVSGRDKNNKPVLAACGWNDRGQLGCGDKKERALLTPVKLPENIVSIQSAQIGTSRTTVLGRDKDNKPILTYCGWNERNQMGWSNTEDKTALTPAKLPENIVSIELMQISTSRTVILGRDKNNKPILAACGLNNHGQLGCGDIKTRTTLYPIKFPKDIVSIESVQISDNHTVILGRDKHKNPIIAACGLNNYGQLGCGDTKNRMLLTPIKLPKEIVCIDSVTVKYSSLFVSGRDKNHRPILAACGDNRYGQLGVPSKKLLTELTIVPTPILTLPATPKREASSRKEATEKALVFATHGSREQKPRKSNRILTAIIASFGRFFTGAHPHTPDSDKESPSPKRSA
# Results are given in words; binding and its absence hold for the method and conditions named. Binding seen in cells or lysates may run through a third protein. Binding calls can cover weak binding; strength is not graded here. Sequences can lack the tags named with a protein.
# Target: FLAG-PpgA (L. pneumophila strain Philadelphia-1) (UniProt Q5ZTD8)
# Experiment: co-IP
row,Binder,binding
1,"RNA1-Strep (protein, UniProt P11745 1-407) MATLHFVPQHEEEQVYSISGKALKLTTSDDIKPYLEELAALKTCTKLDLSGNTIGTEASEALAKCIAENTQVRESLVEVNFADLYTSRLVDEVVDSLKFLLPVLLKCPHLEIVNLSDNAFGLRTIELLEDYIAHAVNIKHLILSNNGMGPFAGERIGKALFHLAQNKKAASKPFLETFICGRNRLENGSAVYLALGLKSHSEGLKVVKLYQNGIRPKGVATLIHYGLQYLKNLEILDLQDNTFTKHASLILAKALPTWKDSLFELNLNDCLLKTAGSDEVFKVFTEVKFPNLHVLKFEYNEMAQETIEVSFLPAMEKGNLPELEKLEINGNRLDEDSDALDLLQSKFDDLEVDDFEEVDSEDEEGEDEEDEDEDEKLEEIETERLEKELLEVQVDDLAERLAETEIK",binds
2,"Strep-tagged RNA1-1 (protein, UniProt P11745 1-407) MATLHFVPQHEEEQVYFISGKALKLTTSDDIKPYLEELAALKTCTKLDLSGNTIGTEASEALAKCIAENTQVRESLVEVNFADLYTSRLVDEVVDSLKFLLPVLLKCPHLEIVNLSDNAFGLRTIELLEDYIAHAVNIKHLILSNNGMGPFAGERIGKALFHLAQNKKAASKPFLETFICGRNRLENGSAVYLVLGLKSHSEGLKVVKLYQNGIRPKGVATLIHYGLQYLKNLEILDLQDNTFTKHASLILAKALPTWKDSLFELNLNDCLLKTAGSDEVFKVFTEVKFPNLHVLKFEYNEMAQETIEVSFLPAMEKGNLPELEKLEINGNRLDEDSDALDLLQSKFDDLEVDDFEEVDSEDEEGEDEEDEDEDEKLEEIETERLEKELLEVQVDDLAERLAETEIK",no binding
